The values below come from PMC2841202.

Amino acid sequences for entries named in this document (tags omitted).
UniProt Q03526: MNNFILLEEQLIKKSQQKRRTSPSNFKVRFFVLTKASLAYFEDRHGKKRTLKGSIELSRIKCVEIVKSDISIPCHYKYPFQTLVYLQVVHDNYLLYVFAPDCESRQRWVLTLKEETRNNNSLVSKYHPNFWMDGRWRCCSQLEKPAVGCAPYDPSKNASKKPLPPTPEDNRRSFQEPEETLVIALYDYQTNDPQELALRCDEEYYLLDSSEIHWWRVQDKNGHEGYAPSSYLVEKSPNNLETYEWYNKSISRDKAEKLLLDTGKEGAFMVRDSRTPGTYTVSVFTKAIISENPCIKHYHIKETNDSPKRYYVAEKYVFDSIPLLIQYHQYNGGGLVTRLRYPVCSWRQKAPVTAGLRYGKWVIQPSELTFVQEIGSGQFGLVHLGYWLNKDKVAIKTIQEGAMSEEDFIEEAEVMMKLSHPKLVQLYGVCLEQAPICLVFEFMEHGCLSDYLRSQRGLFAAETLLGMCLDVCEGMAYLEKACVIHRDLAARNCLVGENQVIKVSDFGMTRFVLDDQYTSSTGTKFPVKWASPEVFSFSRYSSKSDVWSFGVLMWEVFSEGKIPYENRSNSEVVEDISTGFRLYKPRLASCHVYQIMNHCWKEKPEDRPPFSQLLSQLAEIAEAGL

For experiment [1], the target named is Itk, endogenous in murine thymocytes (mouse (endogenous in thymocytes)) (UniProt Q03526). The experiment in a line: co-IP; thymocytes of SH2D2A+/+ mice without CXCL12 stimulation; immunoprecipitation with anti-Itk antibody.
For experiment [2] the target is unchanged. Put plainly: co-IP; thymocytes of SH2D2A+/+ mice stimulated with 100 ng/ml CXCL12 for 2 minutes; immunoprecipitation with anti-Itk antibody, blots with anti-Lck, anti-Zap70 and anti-mTSAd.

No constants are given. Whether binding was seen depends on the method and setting. Binding seen in cells or lysates may run through a third protein. Some entries that bind do so weakly or less than the wild type.

B1: murine TSAd, endogenous in thymocytes (protein, UniProt Q9QXK9 1-374)
chain: MEFCLAQPCPQGNHEATSSTFNTFQPMNLTQGRCQNLSCGSRPSMQVMKEQGVQLSPRTNHTVVSASAPGTAWVLGNADRAEEVPGKGDLSLQAETRAWVQKTQAHWLLLKTAPLWFHGFITRREAERLLQPQPLGCYLVRFSESAVTFVLSYRSQTCCRHFLLAQLGDGRHVVLGEDSAHAQLQDLLEHYTECPLSPYGEILTQPLARQTAEPAGLSLRADSDSGSKRQDPDTQLSLLLQQGQAQASGHTEKVWASQQKATSQASRPRPPIPAKPQLPPEVYTSPASRLHQAPPINPIYQEPDEPIAFYAMGRGSPGDAPSNIYAEVEGPSGTAPIGHPILRKCWSRPISRGQVREVQGKISSRSRAERGSPS
On to B1, for which the binding result in experiment [1] is “no binding (condition: without CXCL12 stimulation)”; in experiment [2] it was “binds”.
